# According to PubChem BioAssay AID504842 (National Center for Advancing Translational Sciences (NCATS), 2011):
# Among all 330,000 compounds or so, about 100 (0.03%) were called active. Inconclusive means that the source gave no clear call. Such entries were picked first, then a sample of the others. Calls come from the whole dose curve; as a rule, active = well fitted inhibition curve with a large enough effect; inconclusive = small, poorly fitted or top-dose-only effect; inactive = flat fitted curve, though single readings scatter. Potencies beside an inconclusive call are fits to weak or partial responses and may not hold up.
# Tested on: Chaperonin Mm-Cpn (Methanococcus maripaludis)
# Assay: Inhibitors of TCP-1 ring complex (TRiC) of Methanococcus maripaludis (MmCpn): qHTS; note: nearly all actives have a fitted effect of over 80% in size;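 for Potency: enzyme at 25 nM with ATP substrate at 10 µM during the reaction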
# Details: purified Mm-Cpn ATPase, ADP Transcreener TR-FRET; activity, negative = inhibition: at the top concentration
# Method in brief: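 Measured: ADP formation by purified Mm-CPN. Conditions: 25 nM protein, 10 uM ATP, Tris pH 7.4 with Mg2+, K+ and DTT, 37°C for 30 min. Detection: Transcreener HTRF after 30 min at room temperature.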
# % is set by controls: 0 for no effect and ±100 for the full control effect; potency is the fitted concentration of half-maximal effect.
SMILES,"activity, negative = inhibition",Potency
CCCCn1c(C)cc2c(c1=O)C1O[C@](c3ccsc3)(Cc3ccccc31)O2,inactive: -6.35% [at 15.4 µM],
CC(Sc1nnc(-c2cccs2)n1N)C(=O)NCC1CCCO1 (configuration not stated),,"inconclusive: 10 µM [inhibitor, single point]"
CCOc1cccc2sc(N(CCCN(C)C)C(=O)c3ccc(S(=O)(=O)N(C)CC4CCCO4)cc3)nc12 (configuration not stated),inactive: -2.94%,
Cc1noc2ncnc(Oc3ccc(Cl)cc3Cl)c12,,"inconclusive: 25.1 µM [inhibitor, single point]"
O=C1NC(=O)C2C1C(c1ccc([N+](=O)[O-])cc1)=NN2Cc1ccccc1 (configuration not stated),,"inconclusive: 12.6 µM [inhibitor, single point]"
CC(=O)c1cc(C#N)c(SCC(=O)OC(C)(C)C)nc1C,,"inconclusive: 708 µM [inhibitor, partial curve, poor fit]"
Cc1nnc(N2CCCC(C(=O)NCc3cccc(F)c3)C2)c2nn(-c3ccccc3)c(C)c12 (configuration not stated),,"inconclusive: 12.6 µM [inhibitor, single point]"
CCOC(=O)c1sc(=NC(=O)c2ccccc2)n(C)c1C,,"inconclusive: 79.4 µM [inhibitor, single point]"
COCCN(CCOC)C(=O)c1c[nH]c2ccc(S(=O)(=O)N(C)c3ccc(F)cc3)cc2c1=O,inactive: 1.82%,
CCCc1c(C(=O)N/N=C/c2ccncc2)nnn1-c1nonc1N,,"inconclusive: 17.8 µM [inhibitor, single point]"
Nc1ccnn1-c1ccccc1,,"inconclusive: 44.7 µM [inhibitor, single point]"
COc1cccc2c1OCC(CN1CCN(CCC(C)C)C(CCO)C1)=C2 (configuration not stated),,"inconclusive: 22.4 µM [inhibitor, single point]"
CCOc1ccc(/C=N/NC(=O)C2CCCC2)c(OCC)c1,,"inconclusive: 100 µM [inhibitor, single point]"
O=C(O)c1cccc2[nH]c(C(F)(F)F)nc12,,"inconclusive: 100 µM [inhibitor, single point]"
Cc1ccc(S(=O)(=O)N2CCN(CC(=O)NC(=O)NCc3ccco3)CC2)cc1C,,"inconclusive: 17.8 µM [inhibitor, single point]"
O=c1[nH]c(=S)c2ncn(-c3ccccc3)c2[nH]1,,"inconclusive: 12.6 µM [inhibitor, single point]"
CCN(CC)c1ccc2c(Cl)c(Br)c(=O)oc2c1,,"inconclusive: 44.7 µM [inhibitor, partial curve, poor fit]"
COc1ccccc1-c1nnc(Nc2nc3c(OC)cccc3s2)o1,,"inconclusive: 100 µM [inhibitor, single point]"
CCCC(=O)NC(=S)Nc1cccc(-c2nc3ncccc3o2)c1,,"inconclusive: 28.2 µM [inhibitor, single point]"
O=[N+]([O-])c1ccc(CSc2nc3ccccc3o2)cc1,,"inconclusive: 89.1 µM [inhibitor, single point]"
CCN=C1Sc2nc3ccc(OCC)cc3cc2CN1CCOC,,"inconclusive: 1120 µM [inhibitor, partial curve, poor fit]"
CCN(CC)S(=O)(=O)c1ccc2[nH]cc(C(=O)NCCCN3CCCCC3C)c(=O)c2c1 (configuration not stated),,"inconclusive: 224 µM [inhibitor, partial curve, poor fit]"
O=C(NCc1ccccc1)c1ccc2nccnc2c1,inactive: 0.77%,

SMILES,"activity, negative = inhibition",Potency
CCCOc1ccc(C2C(C(=O)c3ccc(C)o3)=C(O)C(=O)N2Cc2ccco2)cc1 (configuration not stated),inactive: -4.1%,
O=C(N[C@@H](Cc1ccccc1)C(=O)CCl)OCc1ccccc1,inactive: -0.477%,
O=C(OCC(=O)N1CCOCC1)C(c1ccccc1)c1ccccc1,,"inconclusive: 25.1 µM [inhibitor, single point]"
COc1ccc2nc(SCC(=O)NC3CCCC3)c(C)cc2c1,,"inconclusive: 100 µM [inhibitor, single point]"
CC(C(=O)Nc1ccc(C#N)cc1)N(C)Cc1cccs1 (configuration not stated),,"inconclusive: 6.31 µM [inhibitor, single point]"
O=S(=O)(Nc1cccc(CO)c1)c1cccs1,,"inconclusive: 89.1 µM [inhibitor, single point]"
CS(=O)(=O)c1ccc2nc(NC(=O)CCNC(=O)c3ccccc3Cl)sc2c1,,"inconclusive: 89.1 µM [inhibitor, single point]"
Cc1ccsc1-c1nc(CN2CCCC2c2ccc(F)cc2)c(C)o1 (configuration not stated),,"inconclusive: 100 µM [inhibitor, single point]"
CC12CCC(C(=O)NCCCN3CCOCC3)(C(Br)C1=O)C2(C)C (configuration not stated),,"inconclusive: 15.8 µM [inhibitor, single point]"
CCCN1CCc2c(sc3nc(SCC)n(-c4ccccc4)c(=O)c23)C1,,"inconclusive: 355 µM [inhibitor, partial curve, poor fit]"
CCn1c(-c2ccccc2)c(C(=O)CCl)c2ccccc21,inactive: -2.95%,
CC(COc1ccc(/C=C/c2ccccc2)cc1)[N+](C)(C)C (configuration not stated),inactive: 0.899%,
CCN(CCn1cccn1)C(=O)CCc1nnc(-c2ccc3c(c2)OCO3)o1,,"inconclusive: 14.1 µM [inhibitor, single point]"
CCOC(=O)c1nnn(CC(=O)N2N=C(c3cc(C)ccc3C)CC2c2ccc(OC)cc2)c1C(=O)OCC (configuration not stated),inactive: -0.112%,
COc1ccc(CCNc2oc(COc3ccccc3F)nc2C#N)cc1OC,inactive: -6.07%,
O=C1/C(=N\S(=O)(=O)c2cccs2)C([n+]2ccccc2)=C([O-])c2ccccc21,,"inconclusive: 79.4 µM [inhibitor, single point]"
COc1ccc(Cl)cc1NC(=O)CN(C)C(=O)c1cc2c(s1)CCCC2,inactive: -2.54%,
COc1ccc(/C=C/C(=O)c2ccc(Cl)s2)cc1O,,"inconclusive: 20 µM [inhibitor, single point]"
Cc1cnc(NC(=O)COc2cccc3c2OC(C)(C)C3)s1,,"inconclusive: 79.4 µM [inhibitor, single point]"
Cc1nn(C(=O)c2cc([N+](=O)[O-])ccc2Cl)c(C)c1Br,,"inconclusive: 79.4 µM [inhibitor, single point]"
Cn1cnnc1SCC(=O)Nc1ccc(Oc2ccccc2)cc1,,"inconclusive: 5.62 µM [inhibitor, single point]"
CCN1C(=NCCOC)N[C@@H](c2cccc(C(F)(F)F)c2)C(C(=O)OC)=C1C,,"inconclusive: 22.4 µM [inhibitor, single point]"
CCCCN(CC(=O)Nc1cccc(S(=O)(=O)N2CCCC2)c1)Cc1nc2ccccc2c(=O)[nH]1,,"inconclusive: 251 µM [inhibitor, partial curve, poor fit]"

SMILES,"activity, negative = inhibition",Potency
COc1ccc(C2C(C#N)=C(N)OC3=C2C(=O)CC(C)(C)C3)cc1Cn1nc(C)c([N+](=O)[O-])c1C (configuration not stated),,"inconclusive: 79.4 µM [inhibitor, single point]"
CCn1c(SCC(=O)N2CCc3ccccc32)nnc1-c1c[nH]c2ccccc12,inactive: -0.827%,
COc1ccc(NC(=O)CSc2ccc3c4c(cccc24)C(=O)c2ccccc2-3)cc1,,"inconclusive: 17.8 µM [inhibitor, single point]"
Cc1ccc(NC(=O)c2cc3c(s2)CCCC3)cc1S(=O)(=O)Nc1ccccc1Cl,,"inconclusive: 63.1 µM [inhibitor, single point]"
CN(C)CCOc1ccc(-c2c(-c3ccccc3)sc3ccccc23)cc1,,"inconclusive: 100 µM [inhibitor, single point]"
O=Cc1cc(Cl)ccc1OCCN1CCC(Cc2ccccc2)CC1,inactive: -3.03%,
CC(=O)c1ccc(NC(=O)c2ccc(-n3cnnn3)cc2)cc1,,"inconclusive: 22.4 µM [inhibitor, single point]"
CNC(=S)N1N=C(c2ccc(OC)cc2)CC1c1ccc(N(C)C)cc1 (configuration not stated),,"inconclusive: 100 µM [inhibitor, single point]"
CCCNC(=O)c1cc(Cl)c(NC(=O)C2=CSCCO2)cc1OC,inactive: 0.255%,
CSCCC(NC(=O)c1ccc(C(C)(C)C)cc1)C(=O)O (configuration not stated),,"inconclusive: 224 µM [inhibitor, partial curve, poor fit]"
O=S(=O)(Nc1ccc2ccccc2c1)c1ccccc1,inactive: 1.4%,
CC(O)C(O)C(O)C(O)C1NCCS1 (configuration not stated),inactive: 0.998%,
CCOP(=O)(c1ccc(N(C)C)cc1)C(O)c1cccnc1 (configuration not stated),,"inconclusive: 22.4 µM [inhibitor, single point]"
CCC(C)(C)C1CCC2(CC1)NC(=O)N(CC(=O)NCCCc1ccccc1)C2=O (configuration not stated),,"inconclusive: 12.6 µM [inhibitor, single point]"
CCOc1ccc(N(CC(=O)OC)S(=O)(=O)c2ccc3c(c2)n(C)c(=O)c(=O)n3C)cc1,inactive: -1.32%,
Cc1cccc(-c2ccc3ncnc(NCc4cc(C)cs4)c3c2)c1,,"inconclusive: 100 µM [inhibitor, single point]"
CCOC(=O)C1[C@H]2C(=O)N(C(C)c3ccc(OC)cc3)C[C@]23C=C[C@H]1O3 (some centres not stated),,"inconclusive: 70.8 µM [inhibitor, single point]"
Cc1ccc(-n2ncc3c(SCc4cccnc4)ncnc32)c(C)c1,,"inconclusive: 100 µM [inhibitor, single point]"
CC1(C)OC(=O)C(=Cc2ccc(-c3ccc(Cl)c(C(=O)O)c3)o2)C(=O)O1,inactive: -0.0112%,
COC(=O)c1ccsc1NC(=O)CCS(=O)(=O)c1ccccc1,,"inconclusive: 100 µM [inhibitor, single point]"
CC1=C(C(=O)c2ccccc2)C(c2cn(-c3ccccc3)nc2-c2ccc(Cl)cc2)NC(=S)N1 (configuration not stated),,"inconclusive: 70.8 µM [inhibitor, partial curve, poor fit]"
